Earlier results in US11220534B2, “Treatment of neurological diseases” (Lancaster University Business Enterprises Limited, priority 2016, dated 2022).
At least one compound was matched to its structure with a doubt left.

Columns and labels:
Alzheimer's patients = conditions: pilot clinical trial; cited from earlier work
rat brain = conditions: cited from earlier work
[1] = system: APP/PS1 mouse model of AD; conditions: cited from earlier work

## CCCCCCCCCCCCCCCC(=O)N[C@@H](CCC(=O)NCCCC[C@H](NC(=O)[C@H](C)NC(=O)[C@H](C)NC(=O)[C@H](CCC(N)=O)NC(=O)CNC(=O)[C@H](CCC(=O)O)NC(=O)[C@H](CC(C)C)NC(=O)[C@H](Cc1ccc(O)cc1)NC(=O)[C@H](CO)NC(=O)[C@H](CO)NC(=O)[C@@H](NC(=O)[C@H](CC(=O)O)NC(=O)[C@H](CO)NC(=O)[C@@H](NC(=O)[C@H](Cc1ccccc1)NC(=O)[C@@H](NC(=O)CNC(=O)[C@H](CCC(=O)O)NC(=O)[C@H](C)NC(=O)[C@@H](N)Cc1cnc[nH]1)[C@@H](C)O)[C@@H](C)O)C(C)C)C(=O)N[C@@H](CCC(=O)O)C(=O)N[C@@H](Cc1ccccc1)C(=O)N[C@H](C(=O)N[C@@H](C)C(=O)N[C@@H](Cc1c[nH]c2ccccc12)C(=O)N[C@@H](CC(C)C)C(=O)N[C@H](C(=O)N[C@@H](CCCNC(=N)N)C(=O)NCC(=O)N[C@@H](CCCNC(=N)N)C(=O)NCC(=O)O)C(C)C)[C@@H](C)CC)C(=O)O [liraglutide, Liraglutide]
Alzheimer's patients
  disease-induced degeneration of brain activity and energy utilization: protected the disease-induced degeneration of brain activity and energy utilization
Rat brain
  LTP in the rat brain: upregulate LTP
[1]; APP/PS1 mouse model of AD
  amyloid plaque load in the cortex and total amyloid levels in the brain: reduce amyloid plaque load in the cortex and total amyloid levels in the brain
  memory formation and synaptic plasticity: prevent the impairment in memory formation and synaptic plasticity
[1]; very old transgenic mice
  memory and plaque load at an advanced stage of disease progression: memory can be improved and plaque load be reduced to some degree
